For test [1], the target named is Orf63 part of the hybrid Orf63 protein (phage λ). Kind of test: 1H-15N HSQC comparison of a fused hybrid with free Orf63.
Test [2] concerns the target Phage λ Orf63, 6xHis-Flag affinity tagged (phage λ). Kind of test: NMR titration.

No constants are given. Whether binding was seen depends on the method and setting. Binding can be weak; no strength is given. For part of these data: Tags and fused reporters may be left off the sequences shown.

B1: designed α-helix (20-mer) as appended to the C-terminus of Orf63 in the hybrid Orf63 protein (designed binder)
chain: DTKELILAIARKVKEMIKNS
As for B1, in test [1], the binding result is on record as “binds”.

B2: 6xHis-tagged ubiquitin fusion protein with the designed Orf63 binding peptide (designed binder)
chain: GGLVPRGSGDTKELILAIARKVKEMIKNS
Consider B2, for which the binding result in test [2] was “binds”.

B3: 6xHis-tagged ubiquitin fusion protein with an unrelated peptide (peptide)
chain: GGLVPRGSGMAIAHAATEYVFADFVLK
For B3, the binding result in test [2] was “no binding (tested: 2:1 mixture)”.

These data come from article doi:10.1101/2023.10.03.560691.
